# Library screening results

Sequences of proteins named here, by UniProt entry; tags and fusion partners are left off.
UniProt E9BF75, entry or part of it: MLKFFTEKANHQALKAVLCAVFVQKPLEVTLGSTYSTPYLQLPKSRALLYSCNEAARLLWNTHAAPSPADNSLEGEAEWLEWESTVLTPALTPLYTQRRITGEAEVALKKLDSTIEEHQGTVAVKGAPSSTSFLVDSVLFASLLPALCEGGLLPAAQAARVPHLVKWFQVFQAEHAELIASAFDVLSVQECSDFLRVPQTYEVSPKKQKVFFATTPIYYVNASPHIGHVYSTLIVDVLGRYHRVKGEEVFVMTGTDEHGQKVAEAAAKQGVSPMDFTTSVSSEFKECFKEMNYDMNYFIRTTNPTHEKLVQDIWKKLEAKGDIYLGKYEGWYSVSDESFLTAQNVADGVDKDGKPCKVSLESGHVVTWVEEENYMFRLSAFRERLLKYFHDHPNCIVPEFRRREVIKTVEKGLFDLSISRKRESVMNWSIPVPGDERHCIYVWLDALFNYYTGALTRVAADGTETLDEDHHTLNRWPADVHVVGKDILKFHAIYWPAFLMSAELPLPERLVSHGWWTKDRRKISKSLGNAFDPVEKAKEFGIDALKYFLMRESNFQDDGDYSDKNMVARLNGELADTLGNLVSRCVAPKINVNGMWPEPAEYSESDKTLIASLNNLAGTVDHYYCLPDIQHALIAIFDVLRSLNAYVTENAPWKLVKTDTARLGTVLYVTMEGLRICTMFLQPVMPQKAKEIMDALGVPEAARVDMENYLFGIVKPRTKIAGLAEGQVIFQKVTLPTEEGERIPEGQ

LdMetRS: 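Primary screen of methionyl-tRNA synthetase; the read-out is not stated. Target: Methionyl-tRNA synthetase (putative), Leishmania donovani (UniProt E9BF75). The test concentration is not given. Values are per cent inhibition. Of about 68,000 compounds tested this way, about 24 (0.035%) reached 50% or more in at least one test.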
Mtb heat-shock: 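Assay on Mycobacterium tuberculosis, filed only as a heat shock assay from Cornell; the read-out is not stated. The concentration is filed as 10 mM, unlikely as a test dose, so the dose is not known. The record gives no direction; compounds that gave an IC50 in retests scored well above the rest, so higher reads as stronger inhibition. About 69,000 compounds were tested under these conditions; 1.4% (about 930) showed 50% or more at least once.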

Results are percentages, as filed.
How 0% and 100% were set is not recorded. Most values in the screen are low, and negative values occur.
Compounds were drawn at random from those tested, without regard to their results.
A dash means the value is not listed here; it may have been measured.

| # | structure | LdMetRS | Mtb heat-shock |
|---|---|---|---|
| 1 | `CCN(C)c1ncnc2c1CCN(Cc1csc(C)n1)CC2` | 13.13 | - |
| 2 | `Cc1ncc(C(=O)N2CCCC2c2c(C)nn(C)c2C)s1` (centres undefined) | 5.866 | 1.096 |
| 3 | `O=S(=O)(NCC(O)c1cccs1)c1ccccc1Cl` (centres undefined) | 5.036 | -0.2432 |
| 4 | `CO[C@@]1(C)C[C@@H](O)C12CCN(C(=O)C1(c3ccccc3F)CC1)CC2` | 3.581 | 0.01006 |
| 5 | `O=C(NS(=O)(=O)c1cccc(C(F)(F)F)c1)c1cscn1` | 15.46 | -5.761 |
| 6 | `O=C(CC1=CCCCC1)N1CCC(Cn2cc(CCO)nn2)CC1` | 5.46 | -28.15 |
| 7 | `O=C(O)C(F)(F)F.O=C(O)C(F)(F)F.[H][C@]12C[C@@H](Cn3cncn3)N(C)[C@@]1([H])CCN(C1CCOCC1)C2` | - | 6.496 |
| 8 | `O=C(Cc1ccc2c(c1)CCO2)N1CCN(c2cnccn2)CC1` | 3.061 | -11.54 |
| 9 | `Cc1ccc2c(c1)Oc1ncccc1C(=O)N2` | -6.63 | 0.5608 |
| 10 | `CS(=O)(=O)N1Cc2ccccc2CC2(CCN(Cc3ccccc3)C2)C1` (centres undefined) | 16.57 | -8.392 |
| 11 | `COCCN1CC[C@]2(CN(Cc3ccccn3)C[C@H]2C)C1=O` | 9.058 | - |
| 12 | `Cc1nn(C)c(N(C)C)c1CNCCC(=O)NC1CCCC1` | 6.983 | -17.61 |
| 13 | `Cc1ccc(CN2CCC3(CC2)C(=O)N(CC(C)C)CCN3C)o1.O=C(O)C(F)(F)F.O=C(O)C(F)(F)F` | - | 1.192 |
| 14 | `CN(CCC(C)(C)O)C(=O)C1CCC(=O)N(Cc2ccc(Cl)cc2)C1` (centres undefined) | 16.84 | 10.7 |
| 15 | `Cc1cnn(Cc2ccc(NC(=O)N[C@@H]3C=C[C@H](CO)C3)cc2)c1` | 11.14 | 9.053 |
| 16 | `Cc1cnn(C2CN(CC(O)c3ccc4c(c3)OCCO4)C2)c1` (centres undefined) | 21.46 | 22.72 |
| 17 | `Cc1ccc(CN2CCC3(CC(C(=O)NCC4CC4)=NO3)C2)s1` (centres undefined) | 12.03 | -19.49 |
| 18 | `O=C(c1cnccn1)N1CCC(Cc2cnc3[nH]ccc3c2)CC1` | 17.71 | -15.56 |
| 19 | `O=S(=O)(Cc1ccc(F)cc1F)NCCOc1cccnc1` | 10.61 | -7.832 |
| 20 | `Cc1cc(Cl)ccc1C(=O)C1CCCN(Cc2cnc(N(C)C)s2)C1` (centres undefined) | 9.059 | -2.954 |
| 21 | `CCn1cc(CN2CCCN(C(=O)c3cccn3C)CC2)cn1` | 10.5 | 6.692 |
| 22 | `CN(C)CCNC(=O)c1noc2c1CN(C(=O)N(C)C)CC2` | 9.343 | 2.697 |
| 23 | `O=C(c1ccc(N2CCCC2)nn1)N1CCCc2cc(F)c(F)cc21` | 11.35 | -1.14 |
| 24 | `O=C(O)C(F)(F)F.[H][C@@]12CN(CC3CC3)C[C@]1([H])[C@H](OC)CCN2C(=O)c1ccsc1` | - | 9.15 |
| 25 | `CCN(Cc1nc(COC)no1)Cc1cc2ccc(F)cc2[nH]c1=O` | 6.65 | 25.92 |
| 26 | `O=C(O)C(F)(F)F.O=C(O)C(F)(F)F.c1cnc(N2CCC3(CCN(CC4CCOC4)CC3)CC2)nc1` (centres undefined) | - | -17.57 |
| 27 | `COc1ccc(S(=O)(=O)C2CCN(C(=O)c3cc(C)cs3)CC2)cc1` | 5.367 | -12.36 |
| 28 | `Cc1ncccc1Oc1ncnc(N2CCC(O)(CO)CC2)c1C` | 13.12 | -38.76 |
| 29 | `N#Cc1cn(C2CC2)c(=O)n(Cc2cc(-c3cccs3)on2)c1=O` | 22.44 | 37.96 |
| 30 | `COCCNc1nc(-c2ccc(S(=O)(=O)N3CCCCC3)cc2)cs1` | 15.48 | -4.901 |
| 31 | `Nc1nc(C(=O)NCC2CCC3(CCNCC3)CO2)cs1` (centres undefined) | 6.159 | - |
| 32 | `[H][C@@]12CCN(C[C@@H]1CC)[C@@H](CNC(=O)NC1CCCCC1)C2` | - | 3.613 |
| 33 | `CC(C)(C)c1cnc(CN2CCC(c3ccnn3CCO)CC2)o1` | 3.286 | 7.132 |
| 34 | `CC(NCc1cc(F)ccc1F)c1ccc(OCC(=O)NC2CC2)cc1` (centres undefined) | 16.91 | -1.96 |
| 35 | `CS(=O)(=O)N1Cc2ccccc2C2(CCN(C(=O)c3ccno3)CC2)C1` | 4.377 | -26.88 |
| 36 | `COC1COC2(CCN(Cc3ccc4c(c3)OCO4)CC2)C1.O=C(O)C(F)(F)F` (centres undefined) | - | -16.52 |
| 37 | `CCOc1cc(CN(C)CC(C)(C)O)ccc1OC(F)F` | 7.902 | -32.35 |
| 38 | `CCn1nc(C)c(C(=O)N2CCC(Nc3ccc(C)nn3)CC2)c1C` | 17.96 | -12.49 |
| 39 | `[H][C@]12C[C@H](CNC(=O)c3cccn3C)O[C@@]1([H])CN(C(=O)c1ccco1)C2` | - | 45.79 |
| 40 | `Cc1c(F)cccc1S(=O)(=O)NC(C)(C)CN` | 14.76 | - |
| 41 | `Cn1nccc1CN1CCOC(c2cccc(Nc3ccccn3)n2)C1` (centres undefined) | 13.37 | -8.851 |
| 42 | `CN(C)C1CCCN(C(=O)c2cccc(-c3ncc[nH]3)c2)CC1` (centres undefined) | 17.01 | 16.71 |
| 43 | `COc1ncccc1C(=O)N1CCC(c2nnc(C3CC3)o2)CC1` | 19.61 | 25.72 |
| 44 | `CCS(=O)(=O)N1C[C@@H]2CN(Cc3ccco3)CCO[C@@H]2C1` | -0.6849 | - |
| 45 | `Cc1cc(CN2CCO[C@H]3[C@H](OCc4csc(C)n4)CC[C@@H]32)no1` | 8.125 | - |
| 46 | `Cc1nn(C)c(N(C)C)c1CNCc1cccc(Cn2cccn2)c1` | 4.27 | -1.169 |
| 47 | `O=C(Cc1ccccc1)NCCNCc1cccc(O)c1` | 5.983 | -12.21 |
| 48 | `COc1ccc(C(=O)NCC(=O)N(Cc2ccsc2)C2CC2)cc1OC` | 3.679 | -35.8 |
| 49 | `COc1cc(C)nc(N2CCN(C(C)c3nc(C4CC4)no3)CC2)n1` (centres undefined) | 17.25 | 22.22 |
| 50 | `Cc1cc(N2CCCN(C(=O)Cc3ccc(O)c(Cl)c3)CC2)ccn1` | 12.5 | -0.7822 |
| 51 | `Cn1cncc1C(=O)N1CCOC2(COCCN(CC3CC3)C2)C1` (centres undefined) | 11.54 | - |
| 52 | `COCc1noc(C2(c3ccc(Cl)cc3)CCOCC2)n1` | 7.609 | -4.978 |
| 53 | `CCOc1ccccc1C(CC(=O)N(C)C)NC(C)=O` (centres undefined) | 4.032 | -6.008 |
| 54 | `CCNC(=O)CN1CCOC(c2ccccc2C(F)(F)F)C1` (centres undefined) | 4.19 | -3.828 |
| 55 | `CC1CN(c2ccc(CNC(=O)c3ccn(C)c(=O)c3)cn2)CCO1` (centres undefined) | 16.78 | 3.16 |
| 56 | `CC(=O)N1C[C@@H]2CN(Cc3cccnc3)CCO[C@@H]2C1` | 9.15 | - |
| 57 | `CN(C)C(=O)CN1C[C@@H]2CC[C@H](C1)N(Cc1cc(F)ccc1F)C2` | 5.5 | - |
| 58 | `Cc1cc(CN(C)C(=O)c2cccc(N3CCCC3=O)c2)no1` | 5.164 | 25.72 |
| 59 | `Cc1nc(N(C)C)nc(-c2cccc(-c3ccn(CCCO)n3)c2)c1C` | 19.52 | -30.9 |
| 60 | `[H][C@]12CCCN(c3ncc(C)cn3)[C@@]1([H])CN(S(C)(=O)=O)C2` | - | -12.46 |
| 61 | `O=c1n(Cc2ccc(C(F)(F)F)cc2)nc2ncccn12` | 8.401 | 10.94 |
| 62 | `CN(C)Cc1nc(C(C)(C)NC(=O)C2CC(=O)N(CC3CC3)C2)no1` (centres undefined) | 5.397 | 11.48 |
| 63 | `O=C(O)C(F)(F)F.O=C(O)C(F)(F)F.O=C(O)C(F)(F)F.[H][C@@]12OCCN(Cc3ccccn3)[C@@]1([H])CC[C@H]2OCCN1CCCC1` | - | 8.39 |
| 64 | `CCn1nc2c(cc1=O)CN(c1ncnc3sccc13)CC2` | 14.25 | 24.47 |
| 65 | `O=C(Nc1ccccn1)c1csc(NC2CCCC2)n1` | 15.33 | 105.9 |
| 66 | `CCOC(=O)N1C[C@H]2CC[C@@H]1CN(Cc1ccccc1)C2` | 11.73 | - |
| 67 | `Cc1ccc(=O)n(Cc2nc(C(C)OCC(C)C)no2)n1` (centres undefined) | 10.86 | -0.3901 |
| 68 | `CC(C)(CO)Nc1ccc(-c2nc(-c3ccccc3F)no2)cn1` | 14.29 | 18.72 |
| 69 | `Cc1ccc(CC(=O)N2CCOC(c3ncc(CN(C)C)[nH]3)C2)s1` (centres undefined) | 13.02 | 3.763 |
| 70 | `O=C(COc1coc(CN2CCCCC2)cc1=O)Nc1ccc(Cl)cc1` | 12.86 | -6.868 |
| 71 | `CCn1c(C)cc(C(=O)Nc2ccccc2CN(C)C(C)=O)c1C` | 15.79 | -6.017 |
| 72 | `CN1CCCC(CNC(=O)N2CCN(Cc3ccon3)CC2)C1` (centres undefined) | 10.73 | -1.42 |
| 73 | `Cc1nnc(CN2CCN(C)C3(CCNC(=O)CC3)C2)s1` (centres undefined) | 8.075 | 4.744 |
| 74 | `Cc1ccc2c(c1)CN(C(=O)C1CCCCC1)C(CN(C)C)CO2.Cl` (centres undefined) | - | 6.227 |
| 75 | `CC(C)(C)c1cc(C(=O)NCCN2CCCS2(=O)=O)[nH]n1` | 15.79 | 19.26 |
| 76 | `c1ccc(SCCN2CCN(CCn3cncn3)CC2)cc1` | 7.229 | 16.52 |
| 77 | `CC(C)N1CCc2ncn(C(C)C)c2C1C(=O)NCCN1CCCC1` (centres undefined) | 12.04 | -3.934 |
| 78 | `[H][C@]12CCCN(c3ncc(C)cn3)[C@@]1([H])CN(C(C)=O)C2` | - | -3.419 |
| 79 | `Cc1cccc(NC(=O)[C@@H]2CCCN2Cc2cnc3ccccn23)n1` | -3.183 | -30.94 |
| 80 | `O=C(CC1CC1)N1CCC2(CC1)CC(Oc1ccccc1)CO2` (centres undefined) | 5.263 | -20.71 |
| 81 | `CCC(NC(=O)C(C)C)c1ccccc1C` (centres undefined) | 11.43 | 10.07 |
| 82 | `O=C(NC[C@]12COC[C@H]1CN(Cc1cccnc1)C2)c1ccsc1` | 5.882 | - |
| 83 | `Cc1nc(COCc2nc3c(o2)CN(C(=O)c2ccc[nH]2)C3)cs1` | 19.57 | - |

The values are deposited in ChEMBL (CHEMBL3988442, “University of Dundee, Small-Polar-MMV Screening Library” (2021)).